# Source: PubChem BioAssay AID1645872 (National Center for Advancing Translational Sciences (NCATS), 2021)
# Chains of the proteins cited; added tags and fusions are not shown. Lines headed by an entry give the natural chain unless they say otherwise; changes in a name come on top.
# UniProt P00784: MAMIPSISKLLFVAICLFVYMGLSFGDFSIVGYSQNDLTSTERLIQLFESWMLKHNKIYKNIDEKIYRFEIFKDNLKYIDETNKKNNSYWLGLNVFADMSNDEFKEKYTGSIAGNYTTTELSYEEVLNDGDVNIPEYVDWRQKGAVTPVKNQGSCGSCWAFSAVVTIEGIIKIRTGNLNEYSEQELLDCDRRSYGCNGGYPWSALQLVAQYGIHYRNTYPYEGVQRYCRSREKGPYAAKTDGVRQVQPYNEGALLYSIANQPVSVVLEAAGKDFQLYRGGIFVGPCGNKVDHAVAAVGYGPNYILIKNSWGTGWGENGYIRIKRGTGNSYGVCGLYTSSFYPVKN
# This list was built around the results that the source calls inconclusive (neither active nor inactive); the mix of calls is not that of the screen. Where the call is inconclusive, the potency comes from a doubtful curve fit. Active and inactive are the calls of the source. Calls follow the shape of the dose curve; as a rule, active = well fitted inhibition curve with a large enough effect; inconclusive = small, poorly fitted or top-dose-only effect; inactive = flat fitted curve, though single readings scatter.
# Target: Papain (Carica papaya) (UniProt P00784)
# Test: Confirmatory qHTS assay for inhibitors of the protease papain
# Conditions: papain Z-FR-AMC cleavage, fluorescence; series mostly up to 49.8 µM
# Text: Principal Investigator: Sam Michael National Center for Advancing Translational Sciences, National Institutes of Health, Rockville, MD Current high-throughput screening (HTS) assay validation is often a manual process, though this can be enhanced by design-of-experiment approaches. An artificial intelligence-driven (AI/ML) assay optimization was developed as part of the NCATS A Specialized Platform for Innovative Research Exploration (ASPIRE) Initiative to accelerate preclinical drug discovery. We describe the development of an autonomous Cloud-based computational driven assay optimization system using the Kebotix adaptive optimization algorithm. The Kebotix Bayesian optimization algorithm identify and test the global optimum of the full 294 design-of-experiment (DOE) with a high optimization probability > 95%, and achieved a five-fold reduction in costs for reagents and lab supplies and HTE run-time. The proposed algorithm found suitable conditions for optimal assay performance. A cell-free assay for papain protease activity was chosen for proof-of-concept. […]
# PROTOCOL TABLE SEQUENCE No. (e.g., 1, 2, 3, etc.); PARAMETER (e.g., Cells, Incubation, Reagent, etc.); VALUE and DESCRIPTION. 1; Reagent; 3 uL; 4/3x Enzyme solution (working concentration of 5 nM) or 3 uL buffer 2; Compounds; 17 nL; library compounds and controls (working concentration of 169 nM - […]) 3; Time; 15 min; room temperature incubation 4; Reagent; 1 uL; 4x 2 uM Z-FR-AMC substrate 5; Centrifugation; 1000 rpm; 15 sec centrigure 6; Detection; Fluorescence Read 1; ViewLux plate reader 7; Time; 10 min; room temperature incubation 8; Detection; Fluorescence Read 2; ViewLux plate reader NOTES (numbers refer to Sequence numbers above; values are from representative experiments) 1; Dispense 3 uL of [4/3x] […] 6; Initial fluorescence signal (Read 1) is obtained using the ViewLux plate reader (PerkinElmer) equipped with a 340(30) nm excitation filter; 450(20) nm emission filter; 2 sec exposure time at energy set to 2000. […]
row,Compound,Potency
1,N=C(N)c1ccc(N)cc1,"inconclusive: 25.7 µM [inhibitor, single point]"
2,Cc1ccc(S(=O)(=O)N[C@@H](Cc2ccccc2)C(=O)CCl)cc1,"inconclusive: 16.2 µM [inhibitor, partial curve]"
3,O=c1oc(Cl)c(Cl)c2ccccc12,inactive
